According to patent US11044910B2, “Mesoionic insecticides” (priority 2017, dated 2021):
Some results were stated once for a whole list of compounds, not compound by compound.

Experiments:
[1] = system: fall armyworm (Spodoptera frugiperda (J. E. Smith)); assay: Test B: control of fall armyworm, foliar spray on corn plant; type: in vivo; settings: 1-day-old larvae, assessed after 6 days, very good to excellent control
[2] = system: diamondback moth (Plutella xylostella (L.)); assay: Test A: control of diamondback moth, foliar spray on mustard plant; type: in vivo; settings: neonate larvae, assessed after 6 days, very good to excellent control

Measured: control efficacy: feeding damage (40% or less feeding damage and/or 100% mortality)

O=C(c1ccc(F)c2ccccc12)c1c([O-])n2ccccc2[n+]1Cc1cnc(Cl)s1 [Compound 128]
≤ 40%: [1]; sprayed at 250 ppm | [2]; sprayed at 50 ppm | [2]; sprayed at 250 ppm

O=C(c1c(F)cc(F)cc1F)c1c([O-])n2ccccc2[n+]1Cc1cnc(Cl)s1 [Compound 48]
≤ 40%: [1]; sprayed at 50 ppm | [1]; sprayed at 250 ppm | [2]; sprayed at 50 ppm | [2]; sprayed at 250 ppm

O=C(c1cccc(C(F)(F)F)c1)c1c([O-])n2ccccc2[n+]1Cc1cnc(Cl)s1 [Compound 2]
≤ 40%: [1]; sprayed at 250 ppm | [2]; sprayed at 50 ppm | [2]; sprayed at 250 ppm

O=C(c1c(F)cccc1F)c1c([O-])n2ccccc2[n+]1Cc1cnc(Cl)s1 [Compound 46]
≤ 40%: [1]; sprayed at 250 ppm | [2]; sprayed at 50 ppm | [2]; sprayed at 250 ppm

O=C(c1cccc(C(F)(F)F)c1Cl)c1c([O-])n2ccccc2[n+]1Cc1cnc(Cl)s1 [Compound 87]
≤ 40%: [1]; sprayed at 250 ppm | [2]; sprayed at 50 ppm | [2]; sprayed at 250 ppm

O=C(c1cccc(F)c1)c1c([O-])n2ccccc2[n+]1Cc1cnc(Cl)s1 [Compound 28]
≤ 40%: [1]; sprayed at 250 ppm | [2]; sprayed at 50 ppm | [2]; sprayed at 250 ppm

O=C(c1cccc2c1OCCO2)c1c([O-])n2ccccc2[n+]1Cc1cnc(Cl)s1 [Compound 127]
≤ 40%: [1]; sprayed at 250 ppm | [2]; sprayed at 50 ppm | [2]; sprayed at 250 ppm

O=C(c1cc(Cl)cc(Cl)c1)c1c([O-])n2ccccc2[n+]1Cc1cnc(Cl)s1 [Compound 19]
≤ 40%: [1]; sprayed at 250 ppm | [2]; sprayed at 50 ppm | [2]; sprayed at 250 ppm

O=C(c1cc(F)cc(Br)c1)c1c([O-])n2ccccc2[n+]1Cc1cnc(Cl)s1 [Compound 55]
≤ 40%: [1]; sprayed at 250 ppm | [2]; sprayed at 50 ppm | [2]; sprayed at 250 ppm

N#Cc1cc(F)c(C(=O)c2c([O-])n3ccccc3[n+]2Cc2cnc(Cl)s2)c(F)c1 [Compound 118]
≤ 40%: [1]; sprayed at 250 ppm | [2]; sprayed at 50 ppm | [2]; sprayed at 250 ppm

O=C(c1ccc(Oc2ccccc2)cc1)c1c([O-])n2ccccc2[n+]1Cc1cnc(Cl)s1 [Compound 53]
≤ 40%: [1]; sprayed at 250 ppm | [2]; sprayed at 250 ppm

Cc1cc(C#N)ccc1C(=O)c1c([O-])n2ccccc2[n+]1Cc1cnc(Cl)s1 [Compound 90]
≤ 40%: [1]; sprayed at 250 ppm | [2]; sprayed at 50 ppm | [2]; sprayed at 250 ppm

N#Cc1ccc(C(=O)c2c([O-])n3ccccc3[n+]2Cc2cnc(Cl)s2)c(Cl)c1 [Compound 77]
≤ 40%: [1]; sprayed at 250 ppm | [2]; sprayed at 50 ppm | [2]; sprayed at 250 ppm

O=C(c1cc(Cl)ccc1F)c1c([O-])n2ccccc2[n+]1Cc1cnc(Cl)s1 [Compound 66]
≤ 40%: [1]; sprayed at 250 ppm | [2]; sprayed at 50 ppm | [2]; sprayed at 250 ppm

N#Cc1ccc(C(=O)c2c([O-])n3ccccc3[n+]2Cc2cnc(Br)s2)c(F)c1 [Compound 120]
≤ 40%: [1]; sprayed at 50 ppm | [1]; sprayed at 250 ppm | [2]; sprayed at 50 ppm | [2]; sprayed at 250 ppm

O=C(c1ccccc1F)c1c([O-])n2ccccc2[n+]1Cc1cnc(Cl)s1 [Compound 27]
≤ 40%: [1]; sprayed at 250 ppm | [2]; sprayed at 50 ppm | [2]; sprayed at 250 ppm

O=C(c1ccc2ccccc2c1)c1c([O-])n2ccccc2[n+]1Cc1cnc(Cl)s1 [Compound 94]
≤ 40%: [1]; sprayed at 50 ppm | [1]; sprayed at 250 ppm | [2]; sprayed at 50 ppm | [2]; sprayed at 250 ppm

O=C(c1cc(Cl)cc(Br)c1)c1c([O-])n2ccccc2[n+]1Cc1cnc(Cl)s1 [Compound 123]
≤ 40%: [1]; sprayed at 50 ppm | [1]; sprayed at 250 ppm | [2]; sprayed at 50 ppm | [2]; sprayed at 250 ppm

O=C(c1cccc(Cl)c1)c1c([O-])n2ccccc2[n+]1Cc1cnc(Cl)s1 [Compound 25]
≤ 40%: [1]; sprayed at 50 ppm | [1]; sprayed at 250 ppm | [2]; sprayed at 50 ppm | [2]; sprayed at 250 ppm

COc1cc(F)c(C(=O)c2c([O-])n3ccccc3[n+]2Cc2cnc(Cl)s2)c(F)c1 [Compound 62]
≤ 40%: [1]; sprayed at 50 ppm | [1]; sprayed at 250 ppm | [2]; sprayed at 50 ppm | [2]; sprayed at 250 ppm

O=C(c1c([O-])n2ccccc2[n+]1Cc1cnc(Cl)s1)C1CC1 [Compound 81]
≤ 40%: [1]; sprayed at 250 ppm | [2]; sprayed at 50 ppm | [2]; sprayed at 250 ppm

O=C(c1c(F)cc(C(F)(F)F)cc1F)c1c([O-])n2ccccc2[n+]1Cc1cnc(Cl)s1 [Compound 93]
≤ 40%: [1]; sprayed at 50 ppm | [1]; sprayed at 250 ppm | [2]; sprayed at 50 ppm | [2]; sprayed at 250 ppm

O=C(c1cccc(SC(F)(F)F)c1)c1c([O-])n2ccccc2[n+]1Cc1cnc(Cl)s1 [Compound 42]
≤ 40%: [1]; sprayed at 250 ppm | [2]; sprayed at 50 ppm | [2]; sprayed at 250 ppm

COc1cc(OCC(C)C)cc(C(=O)c2c([O-])n3ccccc3[n+]2Cc2cnc(Cl)s2)c1 [Compound 154]
≤ 40%: [1]; sprayed at 50 ppm | [1]; sprayed at 250 ppm | [2]; sprayed at 250 ppm

O=C(c1c(F)cc(Br)cc1F)c1c([O-])n2ccccc2[n+]1Cc1cnc(Cl)s1 [Compound 63]
≤ 40%: [1]; sprayed at 50 ppm | [1]; sprayed at 250 ppm | [2]; sprayed at 50 ppm | [2]; sprayed at 250 ppm

COc1cc(OCCC(C)C)cc(C(=O)c2c([O-])n3ccccc3[n+]2Cc2cnc(Cl)s2)c1 [Compound 151]
≤ 40%: [1]; sprayed at 50 ppm | [1]; sprayed at 250 ppm | [2]; sprayed at 50 ppm | [2]; sprayed at 250 ppm

O=C(c1c([O-])n2ccccc2[n+]1Cc1cnc(Cl)s1)C(F)F [Compound 11]
≤ 40%: [1]; sprayed at 250 ppm | [2]; sprayed at 50 ppm | [2]; sprayed at 250 ppm

O=C(c1cc(Cl)cc(OC(F)(F)F)c1)c1c([O-])n2ccccc2[n+]1Cc1cnc(Cl)s1 [Compound 65]
≤ 40%: [1]; sprayed at 50 ppm | [1]; sprayed at 250 ppm | [2]; sprayed at 50 ppm | [2]; sprayed at 250 ppm

O=C(c1ccc2c(c1)OC(F)(F)O2)c1c([O-])n2ccccc2[n+]1Cc1cnc(Cl)s1 [Compound 130]
≤ 40%: [1]; sprayed at 50 ppm | [1]; sprayed at 250 ppm | [2]; sprayed at 50 ppm | [2]; sprayed at 250 ppm

COc1ccc(C(=O)c2c([O-])n3ccccc3[n+]2Cc2cnc(Cl)s2)cc1 [Compound 34]
≤ 40%: [1]; sprayed at 250 ppm | [2]; sprayed at 50 ppm | [2]; sprayed at 250 ppm

O=C(c1ccc(F)cc1)c1c([O-])n2ccccc2[n+]1Cc1cnc(Cl)s1 [Compound 29]
≤ 40%: [1]; sprayed at 250 ppm | [2]; sprayed at 50 ppm | [2]; sprayed at 250 ppm

O=C(c1ccc(Cl)cc1)c1c([O-])n2ccccc2[n+]1Cc1cnc(Cl)s1 [Compound 26]
≤ 40%: [1]; sprayed at 250 ppm | [2]; sprayed at 50 ppm | [2]; sprayed at 250 ppm
